# Measurements reported in PubChem BioAssay AID1159578 (Peter MacCallum Cancer Centre, 2015).
# Test: 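siRNA pools altering how lymphatic endothelial cells close a scratch wound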 (primary screen)
# System: human lymphatic endothelial cells
# Knock-down reagent: siRNA pool against human genes, 40 nM
# Duration: 48 h after transfection
# Measured: 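Cells stained with dye and imaged after a scratch; covered wound area and nuclei counted, duplicates averaged, migration set against mock wells and turned into a robust z-score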
# Scale: migration robust z-score: higher = faster migration into the scratch; migration relative to mock: higher = more scratch area covered than mock; nuclei per well: higher = more cells in the well
# Hit rule: 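Migration changed when robust z exceeds 2 or falls below -2 and mean nuclei number is at least 3300; otherwise not called changed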
# Meaning of the calls: active = migration changed; inactive = no migration change, or too few cells
# Here is an unselected part of about 18,000 reagents. About 1,030 of them (5.7%) were called active. 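Inactive calls also include pools with fewer than 3300 nuclei, whose migration was not assessed.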 Raw values are not corrected between plates.
gene symbol,migration robust z-score,migration class with cell-count check,migration relative to mock,"nuclei per well, duplicate mean",Call
COL23A1,0.56,migration z between -2 and 2; enough cells,1.03,4544,inactive
FAHD1,0.36,migration z between -2 and 2; enough cells,0.88,6506,inactive
PRPH,-0.88,migration z between -2 and 2; enough cells,0.66,5469,inactive
MT1H,1.46,migration z between -2 and 2; enough cells,1.27,6240,inactive
CPSF4,-0.12,migration z between -2 and 2; enough cells,0.86,6124,inactive
ZSWIM9,-1.08,migration z between -2 and 2; enough cells,0.6,4622,inactive
PPIC,-1.53,migration z between -2 and 2; enough cells,0.51,3550,inactive
CPNE1,-0.92,migration z between -2 and 2; enough cells,0.65,4544,inactive
ID4,-0.34,migration z between -2 and 2; enough cells,0.74,6545,inactive
THAP1,-1.33,migration z between -2 and 2; enough cells,0.54,5614,inactive
ZNF793,-0.07,migration z between -2 and 2; enough cells,0.87,5410,inactive
MYO6,-0.42,migration z between -2 and 2; enough cells,0.72,7186,inactive
MTR,-2.59,migration z below -2; enough cells,0.3,4620,active
ACTL6A,-0.7,migration z between -2 and 2; enough cells,0.67,4945,inactive
GRK5,-2.25,under 3300 nuclei; migration not judged,0.37,2413,inactive
CLEC12B,-0.08,migration z between -2 and 2; enough cells,0.86,5646,inactive
OC90,0.73,migration z between -2 and 2; enough cells,0.94,4090,inactive
RILPL2,1.7,migration z between -2 and 2; enough cells,1.32,5438,inactive
TRIM24,-0.83,migration z between -2 and 2; enough cells,0.64,3398,inactive
WFDC11,0.24,migration z between -2 and 2; enough cells,0.95,5024,inactive
CCPG1,0.69,migration z between -2 and 2; enough cells,1.06,5068,inactive
DAPP1,-0.36,migration z between -2 and 2; enough cells,0.8,5605,inactive
BLOC1S5,-0.4,migration z between -2 and 2; enough cells,0.78,4042,inactive

Look-ups from the list.
For “nuclei per well, duplicate mean”, RILPL2 is entered as 5438
Under “Call”, BLOC1S5 is entered as inactive
GRK5, migration relative to mock → 0.37
